Results are given in words; binding and its absence hold for the method and conditions named. Binding seen in cells or lysates may run through a third protein. Sequences can lack the tags named with a protein.
Biological target: T1, Rx-v5 (UniProt Q9XGF5)
T1 sequence: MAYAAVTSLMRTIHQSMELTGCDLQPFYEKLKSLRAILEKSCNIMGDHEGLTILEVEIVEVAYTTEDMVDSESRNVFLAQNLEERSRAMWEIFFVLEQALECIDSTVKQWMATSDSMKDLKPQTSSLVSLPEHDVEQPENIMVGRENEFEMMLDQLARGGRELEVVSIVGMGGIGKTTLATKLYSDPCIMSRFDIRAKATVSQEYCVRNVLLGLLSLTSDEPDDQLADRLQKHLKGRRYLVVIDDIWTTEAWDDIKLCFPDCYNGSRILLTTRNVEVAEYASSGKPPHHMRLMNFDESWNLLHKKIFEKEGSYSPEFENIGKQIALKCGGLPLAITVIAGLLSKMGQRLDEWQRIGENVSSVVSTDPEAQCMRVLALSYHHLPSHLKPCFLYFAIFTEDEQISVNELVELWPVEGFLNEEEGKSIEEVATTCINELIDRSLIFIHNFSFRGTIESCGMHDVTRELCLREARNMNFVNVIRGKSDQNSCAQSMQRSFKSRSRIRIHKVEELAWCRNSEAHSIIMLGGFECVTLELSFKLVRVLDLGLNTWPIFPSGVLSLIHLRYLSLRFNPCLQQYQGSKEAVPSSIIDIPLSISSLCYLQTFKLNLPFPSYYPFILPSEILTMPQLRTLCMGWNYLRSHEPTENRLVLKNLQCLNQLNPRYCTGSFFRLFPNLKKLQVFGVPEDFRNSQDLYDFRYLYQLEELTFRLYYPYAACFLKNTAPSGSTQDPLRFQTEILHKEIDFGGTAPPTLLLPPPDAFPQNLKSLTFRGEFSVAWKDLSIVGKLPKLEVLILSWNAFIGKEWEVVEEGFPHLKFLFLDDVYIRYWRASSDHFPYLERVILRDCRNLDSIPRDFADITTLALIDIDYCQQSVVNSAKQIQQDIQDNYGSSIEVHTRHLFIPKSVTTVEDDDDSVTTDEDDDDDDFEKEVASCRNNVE
Experiment: co-IP

Question: Which binding does the source give for “Pikm-2-6xHA (from UniProt P0DO08) (receptor)” here?
Answer: no binding

Reference: doi:10.64898/2025.11.30.691369
